Test results reported in the supplement of paper PMC8728848.
Some of the results follow.

Columns and labels:
Test in all cases: glycan array binding signal (z-score within array); higher = stronger binding
Details in all cases: glycan notation: IUPAC condensed, linker removed
[1] = target: GlcNAc(b1-3)Gal(b1-4)Glc
In short: (§1)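 From the Consortium for Functional Glycomics database, 3228 arrays were curated, keeping only those whose protein sequence was available. Binding is given as a within-array Z-score averaged across arrays sharing a protein sequence and across linkers. Negative Z-scores can be read as non-binding.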

[2] = target: GlcNAc(b1-3)Gal(b1-4)GlcNAc
In short: as §1

[3] = target: GlcNAc(b1-3)Gal(b1-4)GlcNAc(b1-2)Man(a1-3)[GlcNAc(b1-3)Gal(b1-4)GlcNAc(b1-2)Man(a1-6)]Man(b1-4)GlcNAc(b1-4)GlcNAc
In short: as §1

[4] = target: GlcNAc(b1-3)Gal(b1-4)GlcNAc(b1-2)Man(a1-3)[GlcNAc(b1-3)Gal(b1-4)GlcNAc(b1-2)Man(a1-6)]Man(b1-4)GlcNAc(b1-4)[Fuc(a1-6)]GlcNAc
In short: as §1

[5] = target: GlcNAc(b1-3)Gal(b1-4)GlcNAc(b1-2)[GlcNAc(b1-3)Gal(b1-4)GlcNAc(b1-6)]Man(a1-6)[GlcNAc(b1-3)Gal(b1-4)GlcNAc(b1-2)Man(a1-3)]Man(b1-4)GlcNAc(b1-4)GlcNAc
In short: as §1

[6] = target: GlcNAc(b1-3)Gal(b1-4)GlcNAc(b1-3)Gal(b1-4)GlcNAc
In short: as §1

[7] = target: GlcNAc(b1-3)Gal(b1-4)GlcNAc(b1-3)Gal(b1-4)GlcNAc(b1-2)Man(a1-3)[GlcNAc(b1-3)Gal(b1-4)GlcNAc(b1-3)Gal(b1-4)GlcNAc(b1-2)Man(a1-6)]Man(b1-4)GlcNAc(b1-4)GlcNAc
In short: as §1

[8] = target: GlcNAc(b1-3)Gal(b1-4)GlcNAc(b1-3)Gal(b1-4)GlcNAc(b1-2)Man(a1-3)[GlcNAc(b1-3)Gal(b1-4)GlcNAc(b1-3)Gal(b1-4)GlcNAc(b1-2)Man(a1-6)]Man(b1-4)GlcNAc(b1-4)[Fuc(a1-6)]GlcNAc
In short: as §1

[9] = target: GlcNAc(b1-3)Gal(b1-4)GlcNAc(b1-3)Gal(b1-4)GlcNAc(b1-2)[GlcNAc(b1-3)Gal(b1-4)GlcNAc(b1-3)Gal(b1-4)GlcNAc(b1-6)]Man(a1-6)[GlcNAc(b1-3)Gal(b1-4)GlcNAc(b1-3)Gal(b1-4)GlcNAc(b1-2)Man(a1-3)]Man(b1-4)GlcNAc(b1-4)[Fuc(a1-6)]GlcNAc
In short: as §1

[10] = target: GlcNAc(b1-3)Gal(b1-4)GlcNAc(b1-3)Gal(b1-4)GlcNAc(b1-3)Gal(b1-4)GlcNAc(b1-2)Man(a1-3)[GlcNAc(b1-3)Gal(b1-4)GlcNAc(b1-3)Gal(b1-4)GlcNAc(b1-3)Gal(b1-4)GlcNAc(b1-2)Man(a1-6)]Man(b1-4)GlcNAc(b1-4)GlcNAc
In short: as §1

[11] = target: GlcNAc(b1-3)Gal(b1-4)GlcNAc(b1-3)Gal(b1-4)GlcNAc(b1-3)Gal(b1-4)GlcNAc(b1-2)Man(a1-3)[GlcNAc(b1-3)Gal(b1-4)GlcNAc(b1-3)Gal(b1-4)GlcNAc(b1-3)Gal(b1-4)GlcNAc(b1-2)Man(a1-6)]Man(b1-4)GlcNAc(b1-4)[Fuc(a1-6)]GlcNAc
In short: as §1

[12] = target: GlcNAc(b1-3)Gal(b1-4)GlcNAc(b1-3)Gal(b1-4)GlcNAc(b1-3)Gal(b1-4)GlcNAc(b1-2)[GlcNAc(b1-3)Gal(b1-4)GlcNAc(b1-3)Gal(b1-4)GlcNAc(b1-3)Gal(b1-4)GlcNAc(b1-6)]Man(a1-6)[GlcNAc(b1-3)Gal(b1-4)GlcNAc(b1-3)Gal(b1-4)GlcNAc(b1-3)Gal(b1-4)GlcNAc(b1-2)Man(a1-3)]Man(b1-4)GlcNAc(b1-4)[Fuc(a1-6)]GlcNAc
In short: as §1

[13] = target: GlcNAc(b1-3)Gal(b1-4)GlcNAc(b1-3)Gal(b1-4)GlcNAc(b1-3)Gal(b1-4)GlcNAc(b1-3)Gal(b1-4)GlcNAc(b1-2)Man(a1-3)[GlcNAc(b1-3)Gal(b1-4)GlcNAc(b1-3)Gal(b1-4)GlcNAc(b1-3)Gal(b1-4)GlcNAc(b1-3)Gal(b1-4)GlcNAc(b1-2)Man(a1-6)]Man(b1-4)GlcNAc(b1-4)GlcNAc
In short: as §1

[14] = target: GlcNAc(b1-3)Gal(b1-4)GlcNAc(b1-3)Gal(b1-4)GlcNAc(b1-3)Gal(b1-4)GlcNAc(b1-3)Gal(b1-4)GlcNAc(b1-2)Man(a1-3)[GlcNAc(b1-3)Gal(b1-4)GlcNAc(b1-3)Gal(b1-4)GlcNAc(b1-3)Gal(b1-4)GlcNAc(b1-3)Gal(b1-4)GlcNAc(b1-2)Man(a1-6)]Man(b1-4)GlcNAc(b1-4)[Fuc(a1-6)]GlcNAc
In short: as §1

[15] = target: GlcNAc(b1-3)Gal(b1-4)GlcNAc(b1-3)Gal(b1-4)GlcNAc(b1-3)Gal(b1-4)GlcNAc(b1-3)Gal(b1-4)GlcNAc(b1-2)[GlcNAc(b1-3)Gal(b1-4)GlcNAc(b1-3)Gal(b1-4)GlcNAc(b1-3)Gal(b1-4)GlcNAc(b1-3)Gal(b1-4)GlcNAc(b1-6)]Man(a1-6)[GlcNAc(b1-3)Gal(b1-4)GlcNAc(b1-3)Gal(b1-4)GlcNAc(b1-3)Gal(b1-4)GlcNAc(b1-3)Gal(b1-4)GlcNAc(b1-2)Man(a1-3)]Man(b1-4)GlcNAc(b1-4)[Fuc(a1-6)]GlcNAc
In short: as §1

[16] = target: GlcNAc(b1-3)Gal(b1-4)GlcNAc(b1-3)Gal(b1-4)GlcNAc(b1-3)GalNAc
In short: as §1

[17] = target: GlcNAc(b1-3)Gal(b1-4)GlcNAc(b1-3)GalNAc
In short: as §1

[18] = target: GlcNAc(b1-3)Gal(b1-4)GlcNAc(b1-3)[GlcNAc(b1-3)Gal(b1-4)GlcNAc(b1-3)]GalNAc
In short: as §1

[19] = target: GlcNAc(b1-3)Gal(b1-4)GlcNAc(b1-6)[Gal(b1-3)]GalNAc
In short: as §1

[20] = target: GlcNAc(b1-3)Gal(b1-4)GlcNAc(b1-6)[GlcNAc(b1-3)Gal(b1-3)]GalNAc
In short: as §1

[21] = target: GlcNAc(b1-3)Gal(b1-4)GlcNAc(b1-6)[GlcNAc(b1-3)]Gal(b1-4)GlcNAc
In short: as §1

[22] = target: GlcNAc(b1-3)GalNAc
In short: as §1

[23] = target: GlcNAc(b1-3)Man
In short: as §1

[24] = target: GlcNAc(b1-3)[GlcNAc(b1-4)][GlcNAc(b1-6)]GlcNAc
In short: as §1

[25] = target: GlcNAc(b1-3)[GlcNAc(b1-6)]Gal(b1-4)GlcNAc
In short: as §1

[26] = target: GlcNAc(b1-3)[GlcNAc(b1-6)]GalNAc
In short: as §1

[27] = target: GlcNAc(b1-4)Gal(b1-4)GlcNAc
In short: as §1

[28] = target: GlcNAc(b1-4)GlcNAc
In short: as §1

[29] = target: GlcNAc(b1-4)GlcNAc(b1-4)GlcNAc
In short: as §1

[30] = target: GlcNAc(b1-4)GlcNAc(b1-4)GlcNAc(b1-4)GlcNAc(b1-4)GlcNAc
In short: as §1

[31] = target: GlcNAc(b1-4)GlcNAc(b1-4)GlcNAc(b1-4)GlcNAc(b1-4)GlcNAc(b1-4)GlcNAc
In short: as §1

[32] = target: GlcNAc(b1-4)[GlcNAc(b1-6)]GalNAc
In short: as §1

[33] = target: GlcNAc(b1-6)Gal(b1-4)GlcNAc
In short: as §1

[34] = target: GlcNAc(b1-6)GalNAc
In short: as §1

[35] = target: GlcNAc6S(b1-3)Gal(b1-4)GlcNAc
In short: as §1

[36] = target: Kdn(a2-3)Gal(b1-3)GalNAc
In short: as §1

[37] = target: Kdn(a2-3)Gal(b1-3)GlcNAc
In short: as §1

B1: SynCAM (Mus musculus) (protein)
chain: MASAVLPSGSQCAAAAAVAAAAAPPGLRLRLLLLLLSAAALIPTGDGQNLFTKDVTVIEGEVATISCQVNKSDDSVIQLLNPNRQTIYFRDFRPLKDSRFQLLNFSSSELKVSLTNVSISDEGRYFCQLYTDPPQESYTTITVLVPPRNLMIDIQKDTAVEGEEIEVNCTAMASKPATTIRWFKGNKELKGKSEVEEWSDMYTVTSQLMLKVHKEDDGVPVICQVEHPAVTGNLQTQRYLEVQYKPQVHIQMTYPLQGLTREGDAFELTCEAIGKPQPVMVTWVRVDDEMPQHAVLSGPNLFINNLNKTDNGTYRCEASNIVGKAHSDYMLYVYDPPTTIPPP
glycan array binding signal (z-score) [1]: -0.32 | glycan array binding signal (z-score) [2]: -0.123 | glycan array binding signal (z-score) [3]: -0.044 | glycan array binding signal (z-score) [4]: -0.382 | glycan array binding signal (z-score) [5]: 1.72 | glycan array binding signal (z-score) [6]: -0.618 | glycan array binding signal (z-score) [7]: 1.07 | glycan array binding signal (z-score) [8]: 1.01 | glycan array binding signal (z-score) [9]: 1.76 | glycan array binding signal (z-score) [10]: 0.618 | glycan array binding signal (z-score) [11]: 0.941 | glycan array binding signal (z-score) [12]: -0.072 | glycan array binding signal (z-score) [13]: -0.581 | glycan array binding signal (z-score) [14]: 1.8 | glycan array binding signal (z-score) [15]: 1.86 | glycan array binding signal (z-score) [16]: -0.165 | glycan array binding signal (z-score) [17]: -0.428 | glycan array binding signal (z-score) [18]: 0.925 | glycan array binding signal (z-score) [19]: -0.753 | glycan array binding signal (z-score) [20]: 0.804 | glycan array binding signal (z-score) [21]: -1.19 | glycan array binding signal (z-score) [22]: -0.668 | glycan array binding signal (z-score) [23]: 0.179 | glycan array binding signal (z-score) [24]: 2.58 | glycan array binding signal (z-score) [25]: 1.34 | glycan array binding signal (z-score) [26]: -0.659 | glycan array binding signal (z-score) [27]: 0.326 | glycan array binding signal (z-score) [28]: -1.17 | glycan array binding signal (z-score) [29]: -0.747 | glycan array binding signal (z-score) [30]: -0.79 | glycan array binding signal (z-score) [31]: 0.16 | glycan array binding signal (z-score) [32]: 0.059 | glycan array binding signal (z-score) [33]: -0.073 | glycan array binding signal (z-score) [34]: -0.705 | glycan array binding signal (z-score) [35]: -0.791 | glycan array binding signal (z-score) [36]: -0.628 | glycan array binding signal (z-score) [37]: -0.746
